SMILES strings stand for the structures. The list shows only some results of the screen, not a fair sample: it gathers tests that were run many times, whatever their T/C, doses with no T/C, and many T/C values between a quarter and a half above the control. Other doses and runs of a compound stand elsewhere. T/C is the treated group as % of the vehicle group. Some entries give survivors of the animals treated and no T/C: the source files T/C as zero there, which appears to mark a toxic dose or a test without result, not a measured value. Some doses without a T/C left all or most animals alive at the check, yet need not have been tolerated: survival well below the control is almost never listed, so the zero probably covers shortened survival too. Survivors were counted at the toxicity check, usually on the fifth day, unless a day is given; later deaths do not show. Schedules are NCI's codes, read here as Q, the interval in days (D) or hours (H), X, the number of doses. Some entries hold several experiments; the results are listed from low to high. Some schedule codes hold Z or #, which are not explained here. Where survival is the endpoint, this PubChem deposit counts one and a half times the control or more as active, and values a quarter to a half above the control carry no call in these data; other NCI protocols may use other cut-offs. Counts like (3×) count equal records among those shown. Some T/C values are followed by the survivors on the day toxicity was checked, most often the fifth; without a count, all were alive then.

The subject of this assay is L1210 leukemia ip in BDF1 mice, survival T/C. Nature of the assay: NCI In Vivo Anticancer Drug Screen. Data for tumor model L1210 Leukemia (intraperitoneal) in B6D2F1 (BDF1) mice. As to conditions: T/C endpoint: mean survival time, higher T/C = longer survival.
The mark [1] stands for this setting: dose: 60.0 mg/kg/injection, schedule: Q01DX001 (ip), vehicle: carboxymethylcellulose (CMC).
Setting [2] is: dose: 150.0 mg/kg/injection, schedule: Q01DX001 (ip), vehicle: carboxymethylcellulose (CMC).
The mark [3] stands for this setting: dose: 400.0 mg/kg/injection, schedule: Q04DX003 (ip), vehicle: saline with Tween-80.
Where [4] appears, read: dose: 400.0 mg/kg/injection, schedule: Q01DX001 (ip), vehicle: Klucel (hydroxypropylcellulose) (HPC).
The mark [5] stands for this setting: dose: 400.0 mg/kg/injection, schedule: Q04DX002 (ip), vehicle: Klucel (hydroxypropylcellulose) (HPC).
Setting [6] is: dose: 400.0 mg/kg/injection, schedule: Q04DX003 (ip), vehicle: Klucel (hydroxypropylcellulose) (HPC).

For `CN1C2CC(=O)CC1C1CCC2C1`, the survivor count reads like this: under setting [1], 2 of 6; (dose: 75.0 mg/kg/injection, schedule: Q01DX001 (ip), vehicle: carboxymethylcellulose (CMC)) 0 of 6; under setting [2], 0 of 6; (dose: 300.0 mg/kg/injection, schedule: Q01DX001 (ip), vehicle: carboxymethylcellulose (CMC)) 0 of 6.
As for `C=CCOC(=O)c1ccccc1N`, the survivor count is listed as 0 of 6 (dose: 400.0 mg/kg/injection, schedule: Q01DX009 (ip), vehicle: saline with Tween-80) and 0 of 6 under setting [3].
Regarding `CC(=O)OCCC/C(=C\c1ccc(F)cc1)[N+](=O)[O-]`, the survivor count (dose: 200.0 mg/kg/injection, schedule: Q01DX001 (ip), vehicle: other) was 2 of 4 and the survivor count (dose: 400.0 mg/kg/injection, schedule: Q01DX001 (ip), vehicle: other) is 0 of 4.
In the case of `CN(C)C1C(=O)C(C(N)=O)=C(O)C2(O)C(=O)C3=C(O)c4c(O)cccc4C(C)(O)C3C(O)C12` (stereo not given), where the note is “dose: 150.0 mg/kg/injection, schedule: Q01DX Z (ip), vehicle: water”, the survivor count is listed as 2 of 6.
On to `CC(=O)N(O)CCCCCNC(=O)CCC(=O)N(O)CCCCCNC(=O)CCC(=O)N(O)CCCCCN`, for which the T/C by setting is: (dose: 125.0 mg/kg/injection, schedule: Q03HX024 (ip), vehicle: clinical formulation, evaluated on day 5) 102 % of control (2×); (dose: 125.0 mg/kg/injection, schedule: Q03HX024 (ip), vehicle: clinical formulation, evaluated on day 45) 102 % of control; (dose: 125.0 mg/kg/injection, schedule: Q03HX024 (ip), vehicle: clinical formulation, evaluated on day 60) 102 % of control; (dose: 188.0 mg/kg/injection, schedule: Q03HX024 (ip), vehicle: clinical formulation, evaluated on day 5) 95 and 106 % of control; (dose: 188.0 mg/kg/injection, schedule: Q03HX024 (ip), vehicle: clinical formulation, evaluated on day 45) 103 % of control; (dose: 188.0 mg/kg/injection, schedule: Q03HX024 (ip), vehicle: clinical formulation, evaluated on day 60) 106 % of control. Also, the T/C reads like this: (dose: 188.0 mg/kg/injection, schedule: Q03HX024 (ip), vehicle: water, evaluated on day 5) 99, 102, 108 % of control; (dose: 188.0 mg/kg/injection, schedule: Q03HX024 (ip), vehicle: water, evaluated on day 60) 108 % of control; (dose: 280.0 mg/kg/injection, schedule: Q03HX024 (ip), vehicle: clinical formulation, evaluated on day 5) 103 and 106 % of control; (dose: 280.0 mg/kg/injection, schedule: Q03HX024 (ip), vehicle: clinical formulation, evaluated on day 45) 103 % of control; (dose: 280.0 mg/kg/injection, schedule: Q03HX024 (ip), vehicle: clinical formulation, evaluated on day 60) 106 % of control; (dose: 280.0 mg/kg/injection, schedule: Q03HX024 (ip), vehicle: water, evaluated on day 5) 97, 101, 102 % of control. For the setting “dose: 280.0 mg/kg/injection, schedule: Q03HX024 (ip), vehicle: water, evaluated on day 60”, the T/C is 102 % of control.
Consider `COc1ccccc1-n1c(O)c(N=Nc2ccc(Cl)cc2)c(=O)n(-c2ccccc2OC)c1=S`, for which the survivor count under setting [4] is on record as 5 of 6.
Consider `N#CC(CC(=O)O)=C(c1ccccc1)c1ccccc1`, for which the survivor count by setting is: under setting [4], 2 of 6; (dose: 400.0 mg/kg/injection, schedule: Q01DX009 (ip), vehicle: Klucel (hydroxypropylcellulose) (HPC)) 0 of 3 and 3 of 6; under setting [5], 2 of 3 and 6 of 6; under setting [6], 0 of 6.
Turning to `CCOC(=O)C[P+](c1cccc(OC)c1)(c1cccc(OC)c1)c1cccc(OC)c1`, under setting [1], the survivor count was 1 of 6.
On to `CC1(C)N=C(N)N=C(N)N1c1ccc(CN)cc1`, for which the survivor count (dose: 400.0 mg/kg/injection, schedule: Q04DX003 (ip), vehicle: saline) was 3 of 6.
Consider `ClC1c2ccccc2-c2nsnc2C1Cl` (stereo not given), for which the survivor count (dose: 100.0 mg/kg/injection, schedule: Q04DX002 (ip), vehicle: Klucel (hydroxypropylcellulose) (HPC)) is reported as 3 of 3 and the survivor count under setting [5] is recorded as 3 of 3.
Turning to `CN(N=O)C(=O)NC(N)=O`, the T/C is 139 % of control (dose: 2.3 mg/kg/injection, schedule: Q01DX009 (ip), vehicle: saline); 143 % of control (dose: 3.6 mg/kg/injection, schedule: Q01DX009 (ip), vehicle: saline); 137 % of control (dose: 3.75 mg/kg/injection, schedule: Q01DX Z (ip), vehicle: carboxymethylcellulose (CMC)); 147 % of control (dose: 7.5 mg/kg/injection, schedule: Q01DX Z (ip), vehicle: carboxymethylcellulose (CMC)); 138 % of control [5 of 6 alive] (dose: 20.0 mg/kg/injection, schedule: Q01DX Z (ip), vehicle: carboxymethylcellulose (CMC)). For the same molecule, the survivor count (dose: 150.0 mg/kg/injection, schedule: Q01DX Z (ip), vehicle: saline) is listed as 5 of 6.
Turning to `ClC(Cl)=C1SCCCS1`, the survivor count (dose: 400.0 mg/kg/injection, schedule: Q01DX001 (ip), vehicle: saline with Tween-80) is listed as 0 of 3.
Consider `COc1ccc(NC(=O)N(C)N=O)cc1`, for which, under “dose: 65.0 mg/kg/injection, schedule: Q01DX Z (ip), vehicle: carboxymethylcellulose (CMC)”, the T/C is 125 % of control. For the same molecule, the survivor count is, setting by setting: (dose: 85.0 mg/kg/injection, schedule: Q01DX Z (ip), vehicle: carboxymethylcellulose (CMC)) 6 of 6; (dose: 150.0 mg/kg/injection, schedule: Q01DX Z (ip), vehicle: carboxymethylcellulose (CMC)) 4 of 6; (dose: 200.0 mg/kg/injection, schedule: Q01DX Z (ip), vehicle: carboxymethylcellulose (CMC)) 0 of 6.
`O=[N+]([O-])c1cc(Cl)c(Cl)c([N+](=O)[O-])c1Cl`: the survivor count is 0 of 6 (dose: 100.0 mg/kg/injection, schedule: Q01DX009 (ip), vehicle: water); 6 of 6 (dose: 100.0 mg/kg/injection, schedule: Q04DX003 (ip), vehicle: Klucel (hydroxypropylcellulose) (HPC)); 0 of 6 (dose: 200.0 mg/kg/injection, schedule: Q01DX009 (ip), vehicle: water); 1 of 6 (dose: 200.0 mg/kg/injection, schedule: Q04DX003 (ip), vehicle: Klucel (hydroxypropylcellulose) (HPC)); 0 of 6 (dose: 400.0 mg/kg/injection, schedule: Q01DX009 (ip), vehicle: water); 0 of 6 under setting [6].
In the case of `CCN(CC)CCOc1ccc(C=O)cc1`, for the setting “dose: 400.0 mg/kg/injection, schedule: Q04DX002 (ip), vehicle: saline”, the survivor count is on record as 3 of 3.
For the molecule `Nc1nc(Cl)nc2c1ncn2C1CC(O)C(CO)O1` (stereo not given), the T/C reads like this: (dose: 100.0 mg/kg/injection, schedule: Q01DX001 (ip), vehicle: carboxymethylcellulose (CMC)) 129 % of control; under setting [2], 126 % of control. The survivor count (dose: 400.0 mg/kg/injection, schedule: Q01DX001 (ip), vehicle: carboxymethylcellulose (CMC)) is recorded as 0 of 4.
Consider `O=C(Nc1ccc(C2=NCCN2)cc1)c1ccc(C(=O)Nc2ccc(C3=NCCN3)cc2)c(F)c1`, for which the T/C (dose: 5.5 mg/kg/injection, schedule: Q01DX Z (ip), vehicle: carboxymethylcellulose (CMC)) was 134 % of control. Also, the survivor count (dose: 360.0 mg/kg/injection, schedule: Q01DX Z (ip), vehicle: carboxymethylcellulose (CMC)) is 6 of 6.
Turning to `CCCCCCCCCCCCC[n+]1ccc(C#N)cc1`, the survivor count (dose: 75.0 mg/kg/injection, schedule: Q01DX001 (ip), vehicle: saline) was 2 of 6; the survivor count (dose: 150.0 mg/kg/injection, schedule: Q01DX001 (ip), vehicle: saline) was 0 of 6; the survivor count (dose: 300.0 mg/kg/injection, schedule: Q01DX001 (ip), vehicle: saline) is on record as 0 of 6.
On to `O=C(Nc1ccccc1)Oc1ccc(OCc2ccccc2)cc1`, for which the survivor count runs as follows: (dose: 100.0 mg/kg/injection, schedule: Q04DX003 (ip), vehicle: saline with Tween-80) 6 of 6; (dose: 200.0 mg/kg/injection, schedule: Q04DX003 (ip), vehicle: saline with Tween-80) 6 of 6; under setting [3], 6 of 6.

Source of the values: PubChem BioAssay AID248 (DTP/NCI, 2004).
